## Cleaved PARP after 72 h of treatment

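Human melanoma cells were exposed to two drugs together for 72 h in 1,536-well plates and read by automated microscopy after fixing and staining. The read-out is the fraction of cleaved-PARP-positive nuclei, in % of that fraction in the DMSO control; 200 means twice the control level of this apoptosis marker. Concentrations were fixed for each drug; these are the higher of two levels. These are primary screening values without error estimates. Basal and induced levels differ widely between cell lines.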 An unselected part of the screen is shown. An entry leaves out what has no value listed here. A dash means that no value is listed here.

First drug in all entries: docetaxel, 0.0005 µM, CC(=O)O[C@@]12CO[C@@H]1C[C@H](O)[C@@]1(C)C(=O)[C@H](O)C3=C(C)[C@@H](OC(=O)[C@H](O)[C@@H](NC(=O)OC(C)(C)C)c4ccccc4)C[C@@](O)([C@@H](OC(=O)c4ccccc4)[C@H]21)C3(C)C

Compounds and concentrations:
bortezomib, 0.005 µM: CC(C)C[C@H](NC(=O)[C@H](Cc1ccccc1)NC(=O)c1cnccn1)B(O)O
sunitinib, 2 µM: CCN(CC)CCNC(=O)c1c(C)[nH]c(/C=C2\C(=O)Nc3ccc(F)cc32)c1C
palbociclib, 0.2 µM: CC(=O)c1c(C)c2cnc(Nc3ccc(N4CCNCC4)cn3)nc2n(C2CCCC2)c1=O
cediranib, 2 µM: COc1cc2c(Oc3ccc4[nH]c(C)cc4c3F)ncnc2cc1OCCCN1CCCC1
SU6656, 2 µM: CN(C)S(=O)(=O)c1ccc2c(c1)/C(=C/c1cc3c([nH]1)CCCC3)C(=O)N2
BMS-536924, 1 µM: Cc1cc(N2CCOCC2)cc2[nH]c(-c3c(NC[C@@H](O)c4cccc(Cl)c4)cc[nH]c3=O)nc12
YM155, 0.002 µM: COCC[n+]1c2c(n(Cc3cnccn3)c1C)C(=O)c1ccccc1C2=O
etoposide, 0.1 µM: COc1cc([C@@H]2c3cc4c(cc3[C@@H](O[C@@H]3O[C@@H]5CO[C@@H](C)O[C@H]5[C@H](O)[C@H]3O)[C@H]3COC(=O)[C@H]23)OCO4)cc(OC)c1O
AZD7762, 0.1 µM: NC(=O)Nc1cc(-c2cccc(F)c2)sc1C(=O)N[C@H]1CCCNC1
fingolimod, 10 µM: CCCCCCCCc1ccc(CCC(N)(CO)CO)cc1
pazopanib, 2 µM: Cc1ccc(Nc2nccc(N(C)c3ccc4c(C)n(C)nc4c3)n2)cc1S(N)(=O)=O
tamatinib, 2 µM: COc1cc(Nc2ncc(F)c(Nc3ccc4c(n3)NC(=O)C(C)(C)O4)n2)cc(OC)c1OC
tozasertib, 0.03 µM: Cc1cc(Nc2cc(N3CCN(C)CC3)nc(Sc3ccc(NC(=O)C4CC4)cc3)n2)n[nH]1
nilotinib, 1 µM: Cc1cn(-c2cc(NC(=O)c3ccc(C)c(Nc4nccc(-c5cccnc5)n4)c3)cc(C(F)(F)F)c2)cn1
OSI-906, 2 µM: C[C@]1(O)C[C@@H](c2nc(-c3ccc4ccc(-c5ccccc5)nc4c3)c3c(N)nccn32)C1
JZL184, 5 µM: O=C(Oc1ccc([N+](=O)[O-])cc1)N1CCC(C(O)(c2ccc3c(c2)OCO3)c2ccc3c(c2)OCO3)CC1
selumetinib, 0.075 µM: Cn1cnc2c(F)c(Nc3ccc(Br)cc3Cl)c(C(=O)NOCCO)cc21
STA-4783, 0.03 µM: CN(NC(=O)CC(=O)NN(C)C(=S)c1ccccc1)C(=S)c1ccccc1
FK866, 0.05 µM: O=C(/C=C/c1cccnc1)NCCCCC1CCN(C(=O)c2ccccc2)CC1
lenalidomide, 5 µM: Nc1cccc2c1CN(C1CCC(=O)NC1=O)C2=O (centres unmarked)
gemcitabine, 0.002 µM: Nc1ccn([C@@H]2O[C@H](CO)[C@@H](O)C2(F)F)c(=O)n1
MK-2206, 2 µM: NC1(c2ccc(-c3nc4ccn5c(=O)[nH]nc5c4cc3-c3ccccc3)cc2)CCC1
dasatinib, 0.02 µM: Cc1nc(Nc2ncc(C(=O)Nc3c(C)cccc3Cl)s2)cc(N2CCN(CCO)CC2)n1
XAV939, 10 µM: Oc1nc(-c2ccc(C(F)(F)F)cc2)nc2c1CSCC2
KU-0063794, 0.1 µM: COc1ccc(-c2ccc3c(N4CCOCC4)nc(N4C[C@@H](C)O[C@@H](C)C4)nc3n2)cc1CO
vincristine, 0.0005 µM: CC[C@]1(O)C[C@H]2CN(CCc3c([nH]c4ccccc34)[C@@](C(=O)OC)(c3cc4c(cc3OC)N(C=O)[C@H]3[C@@](O)(C(=O)OC)[C@H](OC(C)=O)[C@]5(CC)C=CCN6CC[C@]43[C@@H]65)C2)C1
perifosine, 2 µM: CCCCCCCCCCCCCCCCCCOP(=O)([O-])OC1CC[N+](C)(C)CC1
AS-252424, 5 µM: O=C1NC(=O)/C(=C/c2ccc(-c3ccc(F)cc3O)o2)S1
stibogluconate, 10 µM: O=C(O)[C@@H]1[O][Sb](=[O])([O][Sb]2(=[O])[O][C@H]([C@H](O)CO)[C@H](O)[C@H](C(=O)O)[O]2)[O][C@H]([C@H](O)CO)[C@@H]1O (some centres unmarked)
CX-4945, 2 µM: O=C(O)c1ccc2c(c1)nc(Nc1cccc(Cl)c1)c1ccncc12

| Second drug | IST-MEL1 | WM1716 | A375 | LOX IMVI | COLO 829 | RVH-421 |
|---|---|---|---|---|---|---|
| vincristine | 147 | 347 | 108 | 55.4 | 373 | 416 |
| lenalidomide | 146 | 410 | 105 | 134 | 527 | 51.3 |
| AZD7762 | 236 | 856 | - | 304 | 248 | 43.0 |
| AS-252424 | 119 | 1350 | 253 | 73.9 | 627 | 810 |
| YM155 | 264 | 321 | 215 | 127 | 403 | 385 |
| KU-0063794 | 164 | 566 | 273 | 134 | 477 | 163 |
| perifosine | 194 | 498 | 67.8 | 158 | 139 | 57.4 |
| XAV939 | 199 | 1190 | 211 | 164 | 378 | 197 |
| stibogluconate | 260 | 1870 | 157 | 261 | 104 | 289 |
| palbociclib | 216 | 180 | 161 | 127 | 318 | 222 |
| selumetinib | 523 | 492 | 565 | 126 | 363 | 253 |
| etoposide | 207 | 615 | 68.7 | 90.1 | 293 | 176 |
| SU6656 | 672 | 640 | - | 47.8 | 445 | 169 |
| MK-2206 | 387 | 978 | 185 | 172 | 306 | 378 |
| OSI-906 | 89.6 | 971 | 422 | 143 | 429 | 59.4 |
| CX-4945 | 244 | 1210 | 211 | 90.0 | 535 | 439 |
| dasatinib | 544 | 1260 | 215 | 375 | 605 | 284 |
| bortezomib | 1010 | 6110 | 71.8 | 341 | 2510 | 687 |
| gemcitabine | 707 | 655 | 55.7 | 1600 | 728 | 393 |
| BMS-536924 | 306 | 320 | - | 189 | 203 | 186 |
| STA-4783 | 2980 | 1120 | - | 290 | 363 | 120 |
| FK866 | 114 | 950 | 45.6 | 66.6 | 1220 | 121 |
| fingolimod | 1030 | 893 | 98.2 | 146 | 421 | 1170 |
| cediranib | 261 | 995 | - | 1290 | 280 | 85.9 |
| tamatinib | 546 | 1270 | - | 237 | 330 | 206 |
| nilotinib | 1020 | 877 | 351 | 260 | 557 | 205 |
| pazopanib | 289 | 1230 | 142 | 44.3 | 291 | 152 |
| tozasertib | 166 | 219 | 113 | 63.8 | 379 | 176 |
| JZL184 | 347 | 527 | 464 | 98.2 | 323 | 238 |
| sunitinib | 184 | 225 | 302 | 128 | 370 | 77.1 |

The last 4 entries again:

{"second drug": "pazopanib", "IST-MEL1": 289, "WM1716": 1230, "A375": 142, "LOX IMVI": 44.3, "COLO 829": 291, "RVH-421": 152}
{"second drug": "tozasertib", "IST-MEL1": 166, "WM1716": 219, "A375": 113, "LOX IMVI": 63.8, "COLO 829": 379, "RVH-421": 176}
{"second drug": "JZL184", "IST-MEL1": 347, "WM1716": 527, "A375": 464, "LOX IMVI": 98.2, "COLO 829": 323, "RVH-421": 238}
{"second drug": "sunitinib", "IST-MEL1": 184, "WM1716": 225, "A375": 302, "LOX IMVI": 128, "COLO 829": 370, "RVH-421": 77.1}

From a melanoma drug combination screen (doi:10.1371/journal.pone.0140310); values rounded.